Data as given in publication PMC3958334.

Key:
Assay in all cases: co-IP; S2 cells transfected with plasmids for two tagged STRIPAK proteins (binary co-expression); lysates immunoprecipitated with anti-HA or anti-HSV; immunoblot of immunoprecipitates and lysates
[1] = molecular target: HSV-SLMAP (Drosophila)
[2] = molecular target: HA-CKA (Drosophila)
[3] = molecular target: HSV-STRIP (Drosophila)

Measured: binding

B1: GFP-FGOP2 (protein, UniProt Q9VM65 1-315)
chain: MSNLSVGQIIMDAQRMASRVKDLDALGTALLEEAENNNRLVESLRQYQDDIESLNRISNNKTNADMVNRIQQQNINSSEILKENRELKIFIEDYERAMELMMQKYREHTVSKVLDSKFSFKELYNERMWQVIREQREKINEMAAVMQLAASVDDGVVQRELQTISQLRLENETLRELLQISKQYGSSQRPIRESDHLLEEKAVQTDSTADDSADDLSISGASVENMNNNSVIQMYSSPEQPAKVAGTTNSFNTAPVHSQSETQAPSVTLETAPPGEEPLANDNNNGPAVNTTSAPPPATTSNESVEDQATVAPAT
binds: [1] | [2] | [3]

Results are given in words; binding and its absence hold for the method and conditions named. Binding seen in cells or lysates may run through a third protein. Binding calls can cover weak binding; strength is not graded here. Sequences can lack the tags named with a protein.
